Positions count from the first letter of the chain named. These are yes or no findings as the source states them, for the method shown. For part of these data: In cells and extracts the contact can be indirect. Some entries that bind do so weakly or less than the wild type.
Key:
[1] = target: Bcl2‐associated X protein (BAX), endogenous in AC16 cells (human (endogenous in AC16)), Q07812; test: co-IP; endogenous proteins in lysates (IP lysis buffer: 50 mM HEPES pH 7.4, 150 mM NaCl, 0.1% Triton X-100, 2 mM EGTA) of AC16 cells and primary WT cardiocytes, Ang II (0.2 µM) for 48 h; Anti-MANF (Abcam ab67271) or Anti-BAX (Abcam ab182733) overnight at 4 °C, protein A/G plus-agarose; immunoblot; settings: remark: other sources report otherwise
[2] = target: Bcl2‐associated X protein (BAX), endogenous in primary WT mouse cardiocytes (mouse (endogenous in primary cardiocytes)) (UniProt Q07813); test: as above
[3] = target: BAX, the ligand protein coupled on the SPR chip, Q07812; test: SPR; Biacore X100; BAX as ligand (50 µg/mL in 10 mM sodium acetate) coupled on CM5 chip; MANF or Mut C-MANF flowed; running buffer 1x PBS-P+ (5% DMSO, pH 7.4), 30 µL/min, 80 s; regeneration 10 mM glycine hydrochloride pH 2.0; both purified; settings: remark: other sources report otherwise

Sequences of proteins named here, by UniProt entry; tags and fusion partners are left off.
UniProt Q07813: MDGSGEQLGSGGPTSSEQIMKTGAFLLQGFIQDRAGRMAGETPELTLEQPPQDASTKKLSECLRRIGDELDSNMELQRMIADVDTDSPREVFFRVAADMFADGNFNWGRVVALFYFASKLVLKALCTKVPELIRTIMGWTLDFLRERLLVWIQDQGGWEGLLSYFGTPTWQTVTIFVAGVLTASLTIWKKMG

B1: Mesencephalic astrocyte‐derived neurotrophic factor (MANF), endogenous in AC16 cells, P55145 25-182 (protein)
chain: LRPGDCEVCISYLGRFYQDLKDRDVTFSPATIENELIKFCREARGKENRLCYYIGATDDAATKIINEVSKPLAHHIPVEKICEKLKKKDSQICELKYDKQIDLSTVDLKKLRVKELKKILDDWGETCKGCAEKSDYIRKINELMPKYAPKAASARTDL
[1]
  binding: binds

B2: Mesencephalic astrocyte‐derived neurotrophic factor (MANF), endogenous in primary WT mouse cardiocytes (protein, UniProt Q9CXI5 22-179)
chain: B1 chain with N34E, T126M
[2]
  binding: binds

B3: recombinant human MANF (rhMANF) protein, P55145 25-182 (protein)
chain: B1 chain
[3]
  binding: binds

— PMC12561191
